No constants are given. Whether binding was seen depends on the method and setting. Binding seen in cells or lysates may run through a third protein. Binding can be weak; no strength is given. For some of these results: Sequences can lack the tags named with a protein. One block for each molecule: values may come before it.
Legend:
[1] = target: T1, GFP tagged Srp (Drosophila) (UniProt P52172); assay: co-IP; S2 cell extracts in E1A buffer (50 mM HEPES, 250 mM NaCl, 0.1% NP40), sonicated; IP with anti-GFP (Chromotek) of the GFP-tagged protein, western blot of the endogenous partner; with or without Benzonase (1000 units, overnight)
T1 sequence: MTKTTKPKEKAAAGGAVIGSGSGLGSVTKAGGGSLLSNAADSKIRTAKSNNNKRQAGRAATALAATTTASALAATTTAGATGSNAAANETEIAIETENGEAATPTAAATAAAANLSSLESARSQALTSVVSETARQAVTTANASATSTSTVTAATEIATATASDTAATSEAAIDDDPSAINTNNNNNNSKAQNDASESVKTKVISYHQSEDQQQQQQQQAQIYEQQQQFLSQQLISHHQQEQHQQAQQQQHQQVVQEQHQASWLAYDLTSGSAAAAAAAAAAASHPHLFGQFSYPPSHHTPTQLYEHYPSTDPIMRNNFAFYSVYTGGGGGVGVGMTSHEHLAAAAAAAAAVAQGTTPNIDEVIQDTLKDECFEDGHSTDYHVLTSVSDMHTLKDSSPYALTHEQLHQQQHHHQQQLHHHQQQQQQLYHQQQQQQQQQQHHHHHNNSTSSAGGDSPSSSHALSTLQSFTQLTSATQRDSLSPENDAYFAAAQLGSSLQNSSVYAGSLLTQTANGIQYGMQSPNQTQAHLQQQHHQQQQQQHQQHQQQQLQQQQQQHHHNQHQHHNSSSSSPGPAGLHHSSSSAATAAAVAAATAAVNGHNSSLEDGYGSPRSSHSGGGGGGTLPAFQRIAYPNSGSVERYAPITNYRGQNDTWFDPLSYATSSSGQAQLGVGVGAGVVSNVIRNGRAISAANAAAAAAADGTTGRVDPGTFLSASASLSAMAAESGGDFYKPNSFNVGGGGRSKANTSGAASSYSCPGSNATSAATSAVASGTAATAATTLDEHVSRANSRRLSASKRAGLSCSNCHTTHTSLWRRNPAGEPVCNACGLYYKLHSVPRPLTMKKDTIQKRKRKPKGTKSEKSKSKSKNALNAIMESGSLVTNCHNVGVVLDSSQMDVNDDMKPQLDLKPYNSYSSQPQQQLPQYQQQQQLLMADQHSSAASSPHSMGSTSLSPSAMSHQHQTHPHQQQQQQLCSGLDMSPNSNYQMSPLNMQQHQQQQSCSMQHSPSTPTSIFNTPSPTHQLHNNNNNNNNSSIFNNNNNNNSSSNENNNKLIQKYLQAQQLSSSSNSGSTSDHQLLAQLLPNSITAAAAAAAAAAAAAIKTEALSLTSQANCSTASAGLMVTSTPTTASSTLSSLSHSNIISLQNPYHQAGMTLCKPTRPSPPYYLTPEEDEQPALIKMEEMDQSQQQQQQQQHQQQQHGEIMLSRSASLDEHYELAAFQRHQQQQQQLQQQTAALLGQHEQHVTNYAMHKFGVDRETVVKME

[2] = target: T2, endogenous Piwi (P-element induced wimpy testis) (Drosophila (endogenous in ovaries of w1118 flies)) (UniProt Q9VKM1); assay: co-IP; extracts of ovaries from w1118 flies in E1A buffer (50 mM HEPES, 250 mM NaCl, 0.1% NP40), sonicated; reciprocal IP with anti-dLsd1 or anti-Piwi (Santa-Cruz), IgG as control, western blot; with or without Benzonase (1500 units, overnight)
T2 sequence: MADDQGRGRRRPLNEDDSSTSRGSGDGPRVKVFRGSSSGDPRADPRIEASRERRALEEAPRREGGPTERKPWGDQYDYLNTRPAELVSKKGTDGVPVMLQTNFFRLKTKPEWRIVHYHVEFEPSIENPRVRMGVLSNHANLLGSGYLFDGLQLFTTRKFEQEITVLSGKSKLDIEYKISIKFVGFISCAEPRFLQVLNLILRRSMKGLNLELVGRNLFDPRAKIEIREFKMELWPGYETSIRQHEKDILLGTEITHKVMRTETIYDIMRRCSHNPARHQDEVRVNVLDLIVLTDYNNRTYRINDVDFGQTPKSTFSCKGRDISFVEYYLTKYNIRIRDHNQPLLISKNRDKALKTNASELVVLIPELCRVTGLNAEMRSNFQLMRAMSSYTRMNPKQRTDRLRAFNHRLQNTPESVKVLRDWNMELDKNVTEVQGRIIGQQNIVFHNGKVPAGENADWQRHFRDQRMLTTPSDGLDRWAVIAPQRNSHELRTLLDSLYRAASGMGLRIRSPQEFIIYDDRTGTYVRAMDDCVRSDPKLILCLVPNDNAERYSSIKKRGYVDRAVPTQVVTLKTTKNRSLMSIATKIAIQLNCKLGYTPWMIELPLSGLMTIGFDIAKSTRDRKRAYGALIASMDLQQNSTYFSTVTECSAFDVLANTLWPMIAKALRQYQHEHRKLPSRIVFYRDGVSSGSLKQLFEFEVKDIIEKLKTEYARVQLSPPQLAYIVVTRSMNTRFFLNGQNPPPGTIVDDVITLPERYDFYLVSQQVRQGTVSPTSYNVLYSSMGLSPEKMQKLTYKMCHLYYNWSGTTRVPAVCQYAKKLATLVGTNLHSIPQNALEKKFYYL

[3] = target: GFP tagged dLsd1 (Drosophila); assay: co-IP; S2 cell extracts in E1A buffer (50 mM HEPES, 250 mM NaCl, 0.1% NP40), sonicated; IP with anti-GFP (Chromotek) of the GFP-tagged protein, western blot of the endogenous partner; with or without Benzonase (1000 units, overnight)
[4] = target: endogenous dLsd1 (ovaries) (Drosophila (endogenous in ovaries of w1118 flies)); assay: co-IP; extracts of ovaries from w1118 flies in E1A buffer (50 mM HEPES, 250 mM NaCl, 0.1% NP40), sonicated; reciprocal IP with anti-dLsd1 or anti-Piwi (Santa-Cruz), IgG as control, western blot; with or without Benzonase (1500 units, overnight)

binding [1]: binds
Molecule: endogenous dLsd1 (S2 cells) (Drosophila (endogenous in S2 cells))

binding [2]: binds weakly
Molecule: endogenous dLsd1 (ovaries)

binding [3]: binds
B1: endogenous Serpent (Srp) (protein, UniProt P52172 1-1264)
chain: T1 sequence

binding [4]: binds weakly
B2: endogenous Piwi (P-element induced wimpy testis) (protein, UniProt Q9VKM1 1-843)
chain: T2 sequence

From PMC7026653
